Earlier results as cited in patent publication US20260263483A1, “LOW DOSE THERAPEUTIC SUPPLEMENT TO MODULATE CYTOKINES” (VIRBAC CORPORATION, priority 2023, published 2026).
At least one compound was matched to its structure with a doubt left.

Tested on: hepatic stellate cells (HSCs)

C=C(C)[C@@H]1CC[C@]2(C(=O)O)CC[C@]3(C)[C@H](CC[C@@H]4[C@@]5(C)CC[C@H](O)C(C)(C)[C@@H]5CC[C@]43C)[C@@H]12 [betulinic acid]
ethanol-induced activation of hepatic stellate cells: inhibited
